## Results of single-concentration screens

Sequences of proteins named here, by UniProt entry; tags and fusion partners are left off.
UniProt I6X8D2, whole entry: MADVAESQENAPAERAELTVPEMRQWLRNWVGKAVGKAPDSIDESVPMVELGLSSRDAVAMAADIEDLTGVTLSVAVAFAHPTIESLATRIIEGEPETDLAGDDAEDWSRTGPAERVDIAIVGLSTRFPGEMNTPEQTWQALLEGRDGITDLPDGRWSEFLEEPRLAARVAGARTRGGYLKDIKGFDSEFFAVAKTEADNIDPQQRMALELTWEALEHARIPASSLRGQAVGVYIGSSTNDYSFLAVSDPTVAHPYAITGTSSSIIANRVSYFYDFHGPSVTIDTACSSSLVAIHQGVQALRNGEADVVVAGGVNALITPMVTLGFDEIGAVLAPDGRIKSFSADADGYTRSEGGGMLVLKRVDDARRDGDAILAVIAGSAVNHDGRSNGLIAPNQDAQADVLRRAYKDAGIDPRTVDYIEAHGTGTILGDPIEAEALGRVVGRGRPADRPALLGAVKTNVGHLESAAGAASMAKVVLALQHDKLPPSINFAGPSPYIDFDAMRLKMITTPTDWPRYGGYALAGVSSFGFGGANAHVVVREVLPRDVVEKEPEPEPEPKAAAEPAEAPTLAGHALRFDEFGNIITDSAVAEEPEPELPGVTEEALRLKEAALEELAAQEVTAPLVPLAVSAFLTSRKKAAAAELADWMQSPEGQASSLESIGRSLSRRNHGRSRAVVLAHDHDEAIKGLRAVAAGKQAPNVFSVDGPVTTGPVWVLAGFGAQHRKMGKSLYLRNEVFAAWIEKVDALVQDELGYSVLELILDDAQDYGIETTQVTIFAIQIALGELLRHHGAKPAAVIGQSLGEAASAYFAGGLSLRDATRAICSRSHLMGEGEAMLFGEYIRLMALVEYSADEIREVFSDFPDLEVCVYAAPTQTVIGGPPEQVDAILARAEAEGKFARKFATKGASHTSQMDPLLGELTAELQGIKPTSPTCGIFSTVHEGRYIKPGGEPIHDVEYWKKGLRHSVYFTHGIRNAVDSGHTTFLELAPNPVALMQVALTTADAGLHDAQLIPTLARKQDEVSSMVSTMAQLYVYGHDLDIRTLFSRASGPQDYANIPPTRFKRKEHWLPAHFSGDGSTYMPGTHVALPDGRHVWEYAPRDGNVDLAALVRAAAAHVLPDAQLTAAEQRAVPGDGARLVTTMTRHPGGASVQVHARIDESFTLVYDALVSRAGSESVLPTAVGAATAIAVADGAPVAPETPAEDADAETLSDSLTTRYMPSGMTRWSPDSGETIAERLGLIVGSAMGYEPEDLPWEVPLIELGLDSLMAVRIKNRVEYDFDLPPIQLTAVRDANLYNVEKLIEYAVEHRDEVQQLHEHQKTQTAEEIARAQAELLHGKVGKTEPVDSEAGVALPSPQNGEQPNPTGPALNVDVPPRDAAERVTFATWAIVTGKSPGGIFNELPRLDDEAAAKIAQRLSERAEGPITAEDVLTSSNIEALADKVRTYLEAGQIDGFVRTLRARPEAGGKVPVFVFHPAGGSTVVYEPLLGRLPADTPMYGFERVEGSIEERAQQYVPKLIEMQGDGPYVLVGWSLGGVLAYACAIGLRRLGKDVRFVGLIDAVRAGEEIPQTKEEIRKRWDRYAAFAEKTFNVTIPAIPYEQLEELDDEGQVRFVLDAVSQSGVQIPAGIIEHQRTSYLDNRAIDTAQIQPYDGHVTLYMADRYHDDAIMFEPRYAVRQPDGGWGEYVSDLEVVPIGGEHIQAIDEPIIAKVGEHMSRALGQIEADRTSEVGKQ
UniProt P9WNZ1, whole entry: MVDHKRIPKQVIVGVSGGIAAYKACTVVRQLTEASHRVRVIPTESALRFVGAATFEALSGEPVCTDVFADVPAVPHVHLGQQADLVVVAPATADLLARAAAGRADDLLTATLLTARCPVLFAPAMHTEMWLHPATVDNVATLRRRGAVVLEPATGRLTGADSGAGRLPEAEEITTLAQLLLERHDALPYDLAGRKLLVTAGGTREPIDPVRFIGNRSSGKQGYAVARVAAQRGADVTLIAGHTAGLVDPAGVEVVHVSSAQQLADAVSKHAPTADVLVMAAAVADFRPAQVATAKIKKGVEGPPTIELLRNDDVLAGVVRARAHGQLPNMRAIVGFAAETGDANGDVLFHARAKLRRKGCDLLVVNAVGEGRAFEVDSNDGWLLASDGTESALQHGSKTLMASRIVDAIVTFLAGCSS
UniProt P9WPC5, whole entry: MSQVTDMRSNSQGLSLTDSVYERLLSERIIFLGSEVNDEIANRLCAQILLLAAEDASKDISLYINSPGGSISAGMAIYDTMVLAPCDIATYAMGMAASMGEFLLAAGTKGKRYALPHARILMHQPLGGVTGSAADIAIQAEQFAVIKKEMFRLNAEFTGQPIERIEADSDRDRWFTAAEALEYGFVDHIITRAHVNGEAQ
UniProt P9WPC3, whole entry partner: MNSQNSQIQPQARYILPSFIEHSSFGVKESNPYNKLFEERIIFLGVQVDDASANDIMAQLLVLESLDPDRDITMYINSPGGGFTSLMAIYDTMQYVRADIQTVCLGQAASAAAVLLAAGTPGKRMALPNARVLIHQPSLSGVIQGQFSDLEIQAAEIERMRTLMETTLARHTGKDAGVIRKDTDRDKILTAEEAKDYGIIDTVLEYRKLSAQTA
UniProt P9WFT3, whole entry: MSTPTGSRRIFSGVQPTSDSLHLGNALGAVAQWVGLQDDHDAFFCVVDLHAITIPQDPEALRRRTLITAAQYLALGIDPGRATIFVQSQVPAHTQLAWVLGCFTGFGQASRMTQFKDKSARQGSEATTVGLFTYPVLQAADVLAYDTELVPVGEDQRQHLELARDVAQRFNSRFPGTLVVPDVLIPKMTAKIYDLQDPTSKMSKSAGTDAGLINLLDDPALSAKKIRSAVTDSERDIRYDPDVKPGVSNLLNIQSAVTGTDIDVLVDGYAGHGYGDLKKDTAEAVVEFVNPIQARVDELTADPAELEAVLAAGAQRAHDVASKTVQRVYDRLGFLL

Results are given as percent effect.
The controls that fix the scale are not given in the record; negative values are as filed.
The compounds are a random part of those screened.
Two or more numbers in one place are separate tests of the same structure; such repeats can differ widely.
A dash means the value is not listed here; it may have been measured.

A: 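Enzyme assay of the thioesterase domain of polyketide synthase 13; the read-out is not stated. Target: Polyketide synthase Pks13, Mycobacterium tuberculosis (UniProt I6X8D2). Concentration: 30 µM. Higher reads as stronger inhibition (inferred from which compounds were picked for retests). Size under these conditions: about 67,000 compounds, about 300 of them at 50% or above in at least one test.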
B: 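Assay of Toxoplasma gondii numbers, read through their beta-galactosidase reporter with a colour substrate. Concentration: 10 µM. The record gives no direction; the compounds picked for IC50 retests had high values, so higher reads as fewer parasites. Of about 67,000 compounds tested this way, about 260 (0.38%) reached 50% or more in at least one test.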
C: 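Coenzyme A biosynthesis protein CoaBC, Mycobacterium tuberculosis (UniProt P9WNZ1). Enzyme assay of CoaBC with a phosphate dye (Biomol Green) read at 650 nm. Compounds at 30 µM. Direction is inferred from only a few compounds that gave an IC50; most scored high, so higher reads as stronger inhibition. Most strong results did not repeat in a second test. Size under these conditions: about 67,000 compounds, about 40 of them at 50% or above in at least one test.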
D: 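Protease assay of ClpP1P2, read by the AMC dye that it sets free. Target: ClpP1P2, Mycobacterium tuberculosis (UniProt P9WPC5 and UniProt P9WPC3). Compounds at 50 µM. Higher reads as stronger inhibition, judged from the few compounds that gave an IC50. Most other retested compounds had strongly negative values. About 69,000 compounds were tested under these conditions; 0.015% (about 10) showed 50% or more at least once.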
E: 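Cell assay of Leishmania donovani living inside macrophages; the read-out is not stated. Tested at 30 µM. The record gives no direction; compounds that gave an IC50 in retests scored well above the rest, so higher reads as stronger inhibition. Of about 69,000 compounds tested this way, about 1,000 (1.5%) reached 50% or more in at least one test.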
F: 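Enzyme assay of tryptophanyl-tRNA synthetase; the read-out is not stated. Target: Tryptophan-tRNA ligase, Mycobacterium tuberculosis (UniProt P9WFT3). Tested at 10 µM. Higher most likely means stronger inhibition; the record gives no direction and few retests gave an IC50. Size under these conditions: about 65,000 compounds, about 64 of them at 50% or above in at least one test.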

SMILES,A,B,C,D,E,F
[H][C@@]12C[C@H](C(=O)N3CCCCO3)CN(C(=O)c3ccnnc3)[C@]1([H])CCO2,-,-2.648,-,-,13.73,-
CCN1CCn2c(C)cnc2C12CCN(C(=O)NCC(C)C)CC2,-5.88,-,-0.7059,4.557,-,-1.824
Cc1noc(C)c1CN1C[C@@H]2COC[C@@H](CC(=O)N3CCCCO3)[C@@H]2C1,6.817,-,1.25,-9.492,-,2.815
CSc1ccc(C)c(C(=O)Nc2c(C(N)=O)n[nH]c2C)c1,-19.09,3.213,4.204,-1.396,30.4,5.215
Cc1cnn(Cc2ccc(NC(=O)N3CCCCC3CO)cc2)c1 (stereo not shown),4.888,14.18,-0.2336,11.79,6.578,-5.191
Cc1cc(C(=O)NCC2SCCc3ccccc32)no1 (stereo not shown),-97.9,-0.5618,6.087,1.653,31.33,5.877
CCOc1cccc(NC(=O)c2cc[nH]n2)n1,-7.966,2.332,2.479,1.757,-11.26,2.349
CN(CC(=O)N1CCOC(CCc2ccccc2)C1)Cc1ccccn1 (stereo not shown),-5.442,15.18,2.99,-29.22,36.12,-0.7322
[H][C@@]12CS(=O)(=O)C[C@]1([H])N(Cc1nc3ccccc3[nH]1)CCN2CC=C(C)C,-,22,-,-,12.52,-
c1cnn(CCNCc2ccc(N3CCCCC3)cc2)c1,-4.468,-28.3,4.43,-0.9561,-4.698,-0.2719
Cn1ncc2c(N3CCCC(C)(O)C3)nc(C(C)(C)C)nc21 (stereo not shown),-16.22,-4.933,7.6,-1.666,-30.79,-1.699
O=C(c1sccc1C1CC1)N1CCN(c2cnccn2)CC1,3.597,10.23,-8.56,-0.6024,18.76,-2.469
CCc1nnc(NC(=O)CCN2CC=C(c3cnn(C)c3)CC2)s1,-26.84,15.44,8.931,-2.295,20.79,3.673
O=C1CN(CC[C@@H](O)c2ccccc2)CCN1c1ccccc1Cl,-28.51,-3.285,-6.379,0.05615,22.08,-3.119
COc1cccc(N2CCN(Cc3cccc(CCN)c3)CC2=O)c1,-18.11,17.03,5.897,3.209,-2.038,-0.1467
CC(C)N1CCc2[nH]nc(C(=O)N3CCOCC3)c2C1,-20.99,-,4.835,-12.8,-,-0.2425
O=C(O)C(F)(F)F.O=C(O)C(F)(F)F.O=C(O)C(F)(F)F.[H][C@@]12CCN(Cc3ccncc3)C[C@]1([H])[C@@H](CN(C)Cc1ccco1)OC2,-,5.244,-,-,-12.58,-
CCN1c2ccc(-c3cncn3CCCn3ccnc3C)cc2CC1C (stereo not shown),-42.86,-,15.07,-55.48,-,-4.903
Cn1cc(C2CCCN2C(=O)CS(=O)(=O)C2CCCC2)cn1 (stereo not shown),-31.7,2.76,2.122,-4.189,16.81,1.876
CCc1ccc(S(=O)(=O)Nc2cc(C(=O)O)c(F)cc2F)s1,-12.8,-7.847,5.509,1.073,-24.77,1.852
O=C(O)C(F)(F)F.O=C(O)C(F)(F)F.O=C(O)C(F)(F)F.[H][C@@]12CO[C@H](CNc3ncccn3)[C@]1([H])CCN(Cc1ccccn1)C2,-,14.83,-,-,13.4,-
O=C(O)C(F)(F)F.O=C(O)C(F)(F)F.[H][C@@]12CN(Cc3cccc(F)c3)C[C@]1([H])OCCN2Cc1c(C)noc1C,-,-20.63,-,-,56.73,-
Cc1ccc(CN(C)C(=O)CNC(C)(C)c2noc(C(C)(C)C)n2)o1,8.219,3.056,1.942,27.94,0.4578,-0.9084
NC(=O)[C@@H]1CN2CCN(C(=O)C3CC3)C[C@@H]2[C@H]1c1ccccc1,8.89,-,0,1.981,-,-
Cc1nc[nH]c1C(=O)N1CCC2(CN(C)C(=O)O2)C1 (stereo not shown),-11.87,-5.771,1.023,-6.052,22.85,3.78
O=C(Cn1c(=O)nc2n1C(=O)N(c1ccccc1)C2)NC1CCCCC1,-9.366,14.53,-1.022,-8.306,-29.26,-0.7417
CCN1C(=O)CC[C@]12CC[C@@H](NC(=O)c1cc(C)on1)CC2,-11.9,-32.31,-1.527,-15.4,-5.499,-1.374
O=C(c1cccnc1O)N(CCO)Cc1cc(Br)ccc1F,-11.58,19.21,-4.009,10.22,8.187,-0.9238
CCn1nc(C)c2nc(C(C)C)nc(NC)c21,-10.82,39.93,-7.852,1.761,-70.37,-3.886
CC(NC(=O)c1cc2n(n1)CCCN(C)C2)c1cn2ncsc2n1 (stereo not shown),-6.145,5.876,-4.412,-1.567,20.25,-3.21
CCn1ncc(CN2CCc3c(nc(-c4cccnc4)[nH]c3=O)C2)c1C,-1.047,6.6,15.28,7.713,6.456,1.233
CCCn1nc2c(cc1=O)CN(CCS(C)(=O)=O)CC2,13.17,5.686,4.389,10.6,2.365,3.991
CS(=O)(=O)N1CCc2ccc(=O)n(CC3CCOCC3)c2CC1,-0.6386,1.016,2.737,2.859,14.87 & 2.259,4.382
CN(C)CC1(O)CCCN(C(=O)Cc2ccc(Cl)c(Cl)c2)C1 (stereo not shown),-12.99,6.343,2.057,7.759,-2.799,2.021
O=C(O)C(F)(F)F.[H][C@@]12OCCN(c3ncc(F)cn3)[C@@]1([H])CC[C@H]2OCC1CCOCC1,-,-2.084,-,-,42.92,-
[H][C@@]12CN(Cc3cccnc3OC)C[C@]1([H])CN(c1ncccn1)C2,-,-9.737,-,-,26.88,-
COCCNC(=O)c1ccc2c(=O)n3c(nc2c1)CCCCC3,-,4.592,2.278,9.257,15.04,-0.2045
[H][C@]12CC[C@](C(=O)N3CCC(n4cc(CO)nn4)CC3)(C1)C(=C)C2(C)C,-,-5.898,-,-,4.807,-
c1cc(-c2nnc([C@H]3CCN(C4CCOCC4)C3)o2)ccn1,-8.276,-0.3353,9.934,6.966,14.41,0.3794

2 of the entries, repeated:

SMILES	A	B	C	D	E	F
CN(C)CC1(O)CCCN(C(=O)Cc2ccc(Cl)c(Cl)c2)C1 (stereo not shown)	-12.99	6.343	2.057	7.759	-2.799	2.021
CSc1ccc(C)c(C(=O)Nc2c(C(N)=O)n[nH]c2C)c1	-19.09	3.213	4.204	-1.396	30.4	5.215

The values are deposited in ChEMBL (CHEMBL3988442, “University of Dundee, Small-Polar-MMV Screening Library” (2021)).